Test results from paper doi:10.1101/2021.11.17.468975.

The chains behind the UniProt entries cited, without tags or fusion partners.
UniProt P07260: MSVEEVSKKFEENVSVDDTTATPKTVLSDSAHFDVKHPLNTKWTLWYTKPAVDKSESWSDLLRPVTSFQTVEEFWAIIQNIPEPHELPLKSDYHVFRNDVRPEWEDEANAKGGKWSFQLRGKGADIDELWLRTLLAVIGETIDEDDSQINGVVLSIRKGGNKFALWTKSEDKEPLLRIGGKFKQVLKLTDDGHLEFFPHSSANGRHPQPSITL

T1: Otu2-FTpA (FLAG-TEV-proteinA) (S. cerevisiae) (UniProt P38747)
T1 sequence: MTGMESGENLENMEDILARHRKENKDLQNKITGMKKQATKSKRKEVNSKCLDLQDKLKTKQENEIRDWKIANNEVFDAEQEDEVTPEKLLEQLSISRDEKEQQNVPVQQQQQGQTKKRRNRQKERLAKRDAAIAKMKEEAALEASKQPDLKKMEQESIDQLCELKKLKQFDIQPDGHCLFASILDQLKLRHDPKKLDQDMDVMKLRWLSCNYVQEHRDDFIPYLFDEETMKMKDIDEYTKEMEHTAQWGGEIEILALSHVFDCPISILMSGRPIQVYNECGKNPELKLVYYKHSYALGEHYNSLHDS

T2: Ubp3-FTpA (FLAG-TEV-proteinA) (S. cerevisiae) (UniProt Q01477)
T2 sequence: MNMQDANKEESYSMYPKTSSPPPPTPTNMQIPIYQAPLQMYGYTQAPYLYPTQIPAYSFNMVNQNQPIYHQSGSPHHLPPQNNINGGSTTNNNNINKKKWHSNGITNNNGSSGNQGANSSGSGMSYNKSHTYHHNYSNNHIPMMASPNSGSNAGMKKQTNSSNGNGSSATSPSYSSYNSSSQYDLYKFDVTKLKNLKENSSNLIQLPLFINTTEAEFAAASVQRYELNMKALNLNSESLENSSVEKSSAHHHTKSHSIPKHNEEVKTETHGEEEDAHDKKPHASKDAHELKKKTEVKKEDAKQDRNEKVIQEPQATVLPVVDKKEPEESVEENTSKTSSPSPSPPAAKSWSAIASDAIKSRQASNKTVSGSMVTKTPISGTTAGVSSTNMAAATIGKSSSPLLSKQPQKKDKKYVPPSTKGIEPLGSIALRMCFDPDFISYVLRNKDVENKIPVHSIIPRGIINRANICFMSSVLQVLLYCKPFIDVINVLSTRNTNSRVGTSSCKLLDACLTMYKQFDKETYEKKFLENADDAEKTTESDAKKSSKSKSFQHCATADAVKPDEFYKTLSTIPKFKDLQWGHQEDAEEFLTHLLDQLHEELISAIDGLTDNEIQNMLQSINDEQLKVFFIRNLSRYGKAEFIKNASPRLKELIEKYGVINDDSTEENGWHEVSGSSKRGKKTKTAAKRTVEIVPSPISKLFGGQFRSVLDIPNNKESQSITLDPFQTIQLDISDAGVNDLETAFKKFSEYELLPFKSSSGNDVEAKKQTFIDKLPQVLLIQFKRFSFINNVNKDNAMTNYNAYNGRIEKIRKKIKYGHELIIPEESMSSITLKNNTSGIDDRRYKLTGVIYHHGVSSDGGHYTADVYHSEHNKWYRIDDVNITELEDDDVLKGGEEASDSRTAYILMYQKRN


Key:
[1] = molecular target: T1, Otu2-FTpA (FLAG-TEV-proteinA) (S. cerevisiae); assay: affinity purification with mass spectrometry
[2] = molecular target: T2, Ubp3-FTpA (FLAG-TEV-proteinA) (S. cerevisiae); assay: affinity purification with mass spectrometry

Row | binding [1] | binding [2] | Molecule
1 | no binding | – | eIF4E (from UniProt P07260 1-213)
2 | no binding | – | eIF4A (protein, UniProt P10081 1-395) MSEGITDIEESQIQTNYDKVVYKFDDMELDENLLRGVFGYGFEEPSAIQQRAIMPIIEGHDVLAQAQSGTGKTGTFSIAALQRIDTSVKAPQALMLAPTRELALQIQKVVMALAFHMDIKVHACIGGTSFVEDAEGLRDAQIVVGTPGRVFDNIQRRRFRTDKIKMFILDEADEMLSSGFKEQIYQIFTLLPPTTQVVLLSATMPNDVLEVTTKFMRNPVRILVKKDELTLEGIKQFYVNVEEEEYKYECLTDLYDSISVTQAVIFCNTRRKVEELTTKLRNDKFTVSAIYSDLPQQERDTIMKEFRSGSSRILISTDLLARGIDVQQVSLVINYDLPANKENYIHRIGRGGRFGRKGVAINFVTNEDVGAMRELEKFYSTQIEELPSDIATLLN
3 | – | binds | Bre5 (protein, UniProt P53741 1-515) MGVTVQDICFAFLQNYYERMRTDPSKLAYFYASTAELTHTNYQSKSTNEKDDVLPTVKVTGRENINKFFSRNDAKVRSLKLKLDTIDFQYTGHLHKSILIMATGEMFWTGTPVYKFCQTFILLPSSNGSTFDITNDIIRFISNSFKPYVLTDASLSQSNEENSVSAVEEDKIRHESGVEKEKEKEKSPEISKPKAKKETVKDTTAPTESSTQEKPIVDHSQPRAIPVTKESKIHTETVPSSTKGNHKQDEVSTEELGNVTKLNEKSHKAEKKAAPIKTKEGSVEAINAVNNSSLPNGKEVSDEKPVPGGVKEAETEIKPIEPQVSDAKESGNNASTPSSSPEPVANPPKMTWASKLMNENSDRISKNNTTVEYIRPETLPKKPTERKFEMGNRRDNASANSKNKKKPVFSTVNKDGFYPIYIRGTNGLREEKLRSALEKEFGKVMRITAADNFAVVDFETQKSQIDALEKKKKSIDGIEVCLERKTVKKPTSNNPPGIFTNGTRSHRKQPLKRKD

These are yes or no findings as the source states them, for the method shown. Binding seen in cells or lysates may run through a third protein. Here binding means that the protein was enriched with, or labelled near, the bait; the list need not be complete. For part of these data: No binding means not detected with the bait. Sequences can lack the tags named with a protein.
